# Measurements as given in patent US8802713B2, “3-alkoxy-1-phenylpyrazole derivatives and pesticides” (Kumiai Chemical Industry Co., Ltd., priority 2007, dated 2014).
# Some results were stated once for a whole list of compounds, not compound by compound. For at least one compound, name, drawing or mass did not settle the structure.
# Test system: two-spotted spider mites
# Assay: Miticidal test on two-spotted spider mites (seedling dip)
# Assay type: in vivo, Tetranvchus urticae
# Conditions: 500 ppm active ingredient, soybean seedlings with imago mites dipped, 25° C., 13 days
# Method in brief: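 Soybean seedlings carrying adult mites were dipped in wettable-powder dilution at 500 ppm active ingredient, air-dried, and held at 25° C for 13 days. Live mites were counted and a protective value calculated.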
row,Compound,protective value
1,Cc1cc(F)c(-n2nc(OC(F)(F)C(F)OC(F)(F)C(F)(F)F)c(Cl)c2N)cc1SCC(F)(F)F (stereo not shown) [1-1515],≥ 90
2,Cc1cc(F)c(-n2cc(Br)c(OC(F)(F)C(F)OC(F)(F)F)n2)cc1[S+]([O-])CC(F)(F)F (stereo not shown) [1-1193],≥ 90
3,CCCC(C)Oc1cc(C)n(-c2cc(SCC(F)(F)F)c(C)cc2F)n1 (stereo not shown) [1-219],≥ 90
4,Cc1cc(F)c(-n2ccc(OCc3ccc(C(F)(F)F)cc3)n2)cc1SCC(F)(F)F [1-1565],≥ 90
5,Cc1cc(F)c(-n2nc(OCC(F)(F)C(F)(F)F)cc2NC(=O)C(F)(F)Cl)cc1SCC(F)(F)F [1-167],≥ 90
6,Cc1cc(F)c(-n2nc(OCC[Si](C)(C)C)cc2C)cc1SCC(F)(F)F [1-285],≥ 90
7,Cc1cc(F)c(-n2nc(OC(F)(F)C(F)C(F)(F)F)c(I)c2N)cc1SCC(F)(F)F (stereo not shown) [1-1547],≥ 90
8,Cc1cc(F)c(-n2nc(OCCCC(C)C)cc2C)cc1[S+]([O-])CC(F)(F)F (stereo not shown) [1-294],≥ 90
9,Cc1cc(F)c(-n2nc(OC(F)(F)C(F)OC(F)(F)C(F)(F)C(F)(F)F)c(Br)c2Br)cc1[S+]([O-])CC(F)(F)F (stereo not shown) [1-1109],≥ 90
10,COc1ccn(-c2cc(SCC(F)(F)F)c(C)cc2F)n1 [1-1357],≥ 90
11,Cc1cc(F)c(-n2nc(OC(F)(F)C(F)(F)C(F)(F)F)cc2C)cc1SCC(F)(F)F [1-269],≥ 90
12,Cc1cc(F)c(-n2ccc(OCc3cccnc3)n2)cc1[S+]([O-])CC(F)(F)F (stereo not shown) [1-1610],≥ 90
13,Cc1cc(F)c(-n2ccc(OC(F)(F)C(F)(F)C(F)(F)C(F)(F)F)n2)cc1[S+]([O-])CC(F)(F)F (stereo not shown) [1-397],≥ 90
14,Cc1cc(F)c(-n2cc(Cl)c(OC(F)(F)C(F)(F)C(F)(F)F)n2)cc1SCC(F)(F)F [1-1134],≥ 90
15,CC(=O)Nc1c(Cl)c(OCC(F)(F)C(F)(F)F)nn1-c1cc(SCC(F)(F)F)c(C)cc1F [1-209],≥ 90
16,Cc1cc(F)c(-n2nc(OC(F)(F)C(F)(F)C(F)(F)F)cc2Cl)cc1SCC(F)(F)F [1-872],≥ 90

row,Compound,protective value
1,CC(=O)Nc1cc(OCC(F)(F)C(F)(F)C(F)(F)C(F)F)nn1-c1cc([S+]([O-])CC(F)(F)F)c(C)cc1F (stereo not shown) [1-377],≥ 90
2,Cc1cc(F)c(-n2nc(OC(F)(F)C(F)C(F)(F)F)cc2C(F)F)cc1SCC(F)(F)F (stereo not shown) [1-1529],≥ 90
3,Cc1cc(F)c(-n2nc(OCCCC(F)(C(F)(F)F)C(F)(F)F)cc2C)cc1SCC(F)(F)F [1-301],≥ 90
4,Cc1cc(F)c(-n2nc(OCC(F)(F)F)cc2NC(=O)C2CC2)cc1SCC(F)(F)F [1-1433],≥ 90
5,Cc1cc(F)c(-n2nc(OCCCC(C)C)cc2C)cc1SCC(F)(F)F [1-293],≥ 90
6,CC(=O)Nc1cc(OCC(F)(F)Cl)nn1-c1cc(SCC(F)(F)F)c(C)cc1F [1-1371],≥ 90
7,Cc1cc(F)c(-n2nc(OCC(F)(F)C(F)(F)F)cc2C(F)F)cc1SCC(F)(F)F [1-1541],≥ 90
8,Cc1cc(F)c(-n2cc(Br)c(OC(F)(F)C(F)OC(F)(F)F)n2)cc1SCC(F)(F)F (stereo not shown) [1-1192],≥ 90
9,Cc1cc(F)c(-n2ccc(OCc3ccc(C(F)(F)F)cc3)n2)cc1[S+]([O-])CC(F)(F)F (stereo not shown) [1-1566],≥ 90
10,COCCOc1cc(C)n(-c2cc(SCC(F)(F)F)c(C)cc2F)n1 [1-239],≥ 90
11,Cc1cc(F)c(-n2nc(OC(C)C(F)(F)C(F)(F)C(F)(F)F)cc2C)cc1SCC(F)(F)F (stereo not shown) [1-281],≥ 90
12,Cc1cc(F)c(-n2ccc(OC(C)C)n2)cc1SCC(F)(F)F [1-1539],≥ 90
13,C#CCNc1cc(OC(F)(F)C(F)OC(F)(F)F)nn1-c1cc(SCC(F)(F)F)c(C)cc1F (stereo not shown) [1-578],≥ 90
14,Cc1cc(F)c(-n2nc(OC(F)(F)C(F)Cl)cc2C)cc1[S+]([O-])CC(F)(F)F (stereo not shown) [1-1426],≥ 90
15,CC(=O)Nc1cc(OCC(F)=CC(F)(F)F)nn1-c1cc([S+]([O-])CC(F)(F)F)c(C)cc1F (stereo not shown) [1-192],≥ 90
